At least one compound was matched to its structure with a doubt left.
System: IMQ-induced psoriasis mouse model
Experiment: IMQ-induced psoriasis mouse model (PASI scoring)
Format: in vivo, Balb/c mice
Conditions: IMQ-induced psoriasis mice; DEX 3 mg/kg PO qD
Procedure: Method: This experiment used a total of 19 mice. A natural skin observation control (n=1). 2 cm^2 of hair was shaved off the backs of […] on day 0, the stubble was removed with a mild depilatory cream, and the original skin was photographed. 62.5 mg of IMQ was applied to each of the mice. There was a mock group (n=6), a DEX (3 mg/kg, PO., qD) group (n=6), and a GEN1-284s (30 mg/kg, PO, qD) group (n=6). On the day of modeling, administration was performed in a volume of 100 μL/20 g body weight 4 h after IMQ application. The PASI scoring method was used to score the erythema, swelling and scaling on the skin of the mice. The experiment took a total of 6 days. The first day was set to day 0. IMQ application and administration were not performed on day 5. The mice were sacrificed with carbon dioxide at the end of the experiment.
The test animals were anesthetized with isoflurane. 2 cm^2 of hair was shaved off the backs of the mice, and the stubble was removed with a depilatory cream. IMQ application was performed for a total of 5 days, from day 0 to day 4. Scoring and IMQ application were performed every morning. Administration was performed in the afternoon
Desquamation (D): means epidermal cells flake off. […]

In the case of `C[C@@H]1C[C@H]2[C@@H]3CCC4=CC(=O)C=C[C@]4(C)[C@@]3(F)[C@@H](O)C[C@]2(C)[C@@]1(O)C(=O)CO` [dexamethasone, Dexamethasone, reference compound], the “Swelling of the skin” value is reported as “the swelling of the skin was relieved”.
